Among all 31,000 sequences or so, about 1,400 (4.5%) were called active.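 How the source made its calls: active means median seed-adjusted z-score above 1 or below -1; inactive means the rest.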 Some of the results follow.

This assay in a line: Novel Modifiers of Survival Motor Neuron (SMN) Protein: Gene Identification via Genome-wide siRNA Screen.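 Further: luminescence tracks full-length SMN protein made from the SMN2 reporter.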 To be noted: HEK293T SMN2-luciferase reporter, siRNA knockdown, 72 h; actives lie on both sides. The gist of the method: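 Each of three siRNAs per gene is reverse-transfected (1 pmol) into reporter HEK293T cells whose luciferase output tracks SMN protein level. After 72 h culture, ONE-Glo luminescence is control-normalized, log10-transformed and MAD-standardized; Common Seed Analysis deprioritizes seed-driven hits.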
For orientation: A reporter such as luciferase makes a cellular process visible.
As to GGUGAGUAAGGAAAGCGAATT against FLT1, the median seed-adjusted z-score is inactive: 0.407.
As for CCCUUCUUGUUUACAUGAATT against SLC25A43, the median seed-adjusted z-score is inactive: 0.
In the case of CAUACCUCAUUAUUACCUUTT against DLAT it was inactive: 0; in that of ACUUCACAGCGAGCACGGATT against ASGR1, inactive: -0.128; in that of UGCCGUUUUUCCUUAGAAATT against BZRPL1, inactive: 0.0787.
GGCAUUAACAGAUCAACAATT against TOMM70A: the median seed-adjusted z-score is inactive: 0.0717.
On to GGCUAUUUCCUGUAUGGGATT against CAND1, for which the median seed-adjusted z-score was inactive: 0.157.
On to GCCUUUUCUGGGAACUAUUTT against CYP3A43, for which the median seed-adjusted z-score was inactive: -0.599.
For the sequence GCCCUGCAUUUGCGAUGAATT against ZNF169, the median seed-adjusted z-score was inactive: 0.
GGGAUGCUUUGUGGACUCATT against KREMEN2: the median seed-adjusted z-score is inactive: -0.0883.
In the case of GGACUUUAUAUGUCGGCAATT against TTC35 it was inactive: -0.0898; in that of CCACUAUGGGUAAUUUAAATT against SALL3, inactive: -0.133; in that of AGCCCUUUCCUGAUAACUATT against PIGC, inactive: -0.3.
For CUACUUAUCUGGACAUGGATT against OGFOD1, the median seed-adjusted z-score was inactive: 0.442.
With CGUUACCCAUUGCUACGAATT against RNF145 the figure was inactive: -0.554.
As for GCUUUACCCUGAGAGAAUATT against ZNF498, the median seed-adjusted z-score is inactive: -0.476.
As for CUGUUGCACUGAACGAAGATT against DSG2, the median seed-adjusted z-score is inactive: -0.285.
With GGAACUCAUUUGGUGGAGATT against LBXCOR1, the median seed-adjusted z-score was inactive: 0.0938.
Consider GGUAAGAAAUUCAAAAUGATT against ZBTB43, for which the median seed-adjusted z-score was inactive: 0.143.
On to GCUCUGCAUAAUGACCUAATT against REXO4, for which the median seed-adjusted z-score is inactive: -0.166.
As to CAGAGUCUUUCAUUCGAAUTT against SPATA5, the median seed-adjusted z-score was active: -1.04.
Consider CAUCAUCAGGAAACUCUAATT against CASP2, for which the median seed-adjusted z-score was inactive: 0.421.
Regarding GGAAUAACAUGAUUGUUAUTT against UGT1A6, the median seed-adjusted z-score was inactive: -0.0939.
Turning to GAUUAUAGUUUGUUCCGAATT against USP28, the median seed-adjusted z-score was inactive: 0.275.
With CGCUAACUGUCACAAACUUTT against DOCK6 the figure was inactive: 0.0378; with GGAACUUAAUGAGCAUGCATT against TUBE1, inactive: -0.00933.
As for CCAUCAUCCGGGAUGAGGATT against NPEPL1, the median seed-adjusted z-score is active: 1.12.
Regarding UGAAGAUGAGGGACCCUAATT against LOXL4, the median seed-adjusted z-score is inactive: -0.591.
On to AGAUACCAACGACCCAUUATT against KCNJ5, for which the median seed-adjusted z-score is inactive: 0.0644.
With GCACUGCACAGAUACACGUTT against PCDHGB4 the figure was inactive: 0.176.

For the origin of these results see PubChem BioAssay AID1347426 (Functional Genomics Laboratory (NCATS/FGL), 2020).
